# Measurements published in PMC5963844.
# Sequences of proteins named here, by UniProt entry; tags and fusion partners are left off. A change or cut given only in a name is not applied to a line headed by its entry.
# UniProt P23258: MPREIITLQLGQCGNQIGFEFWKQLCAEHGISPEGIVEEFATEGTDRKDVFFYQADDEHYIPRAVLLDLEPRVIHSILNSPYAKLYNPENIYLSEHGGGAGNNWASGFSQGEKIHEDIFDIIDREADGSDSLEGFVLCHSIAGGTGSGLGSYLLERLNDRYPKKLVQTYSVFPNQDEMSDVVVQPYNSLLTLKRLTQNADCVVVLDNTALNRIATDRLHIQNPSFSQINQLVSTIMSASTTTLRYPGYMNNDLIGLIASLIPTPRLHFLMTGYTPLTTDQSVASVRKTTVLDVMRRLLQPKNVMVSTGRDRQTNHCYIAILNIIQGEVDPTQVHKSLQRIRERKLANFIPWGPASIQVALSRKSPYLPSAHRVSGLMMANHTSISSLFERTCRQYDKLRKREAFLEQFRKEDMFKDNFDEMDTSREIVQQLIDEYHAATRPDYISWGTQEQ
# No constants are given. Whether binding was seen depends on the method and setting. In cells and extracts the contact can be indirect. Binding can be weak; no strength is given. Sequences can lack the tags named with a protein.
# Molecular target: T1, Samp1a–YFP (human) (UniProt Q5SNT2)
# T1 sequence: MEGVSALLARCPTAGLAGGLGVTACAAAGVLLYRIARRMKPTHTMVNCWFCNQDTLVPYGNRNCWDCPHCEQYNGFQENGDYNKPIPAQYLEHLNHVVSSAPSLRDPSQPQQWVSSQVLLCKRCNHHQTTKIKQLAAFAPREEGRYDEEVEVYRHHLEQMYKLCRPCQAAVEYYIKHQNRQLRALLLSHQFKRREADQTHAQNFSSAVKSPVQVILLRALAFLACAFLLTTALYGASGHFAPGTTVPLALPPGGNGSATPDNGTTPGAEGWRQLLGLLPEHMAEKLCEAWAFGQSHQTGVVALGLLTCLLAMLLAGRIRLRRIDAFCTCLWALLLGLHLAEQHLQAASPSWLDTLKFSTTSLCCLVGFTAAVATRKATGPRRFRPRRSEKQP
# Assay: co-IP; membrane protein cross-link immunoprecipitation (MCLIP): cells synchronised in metaphase, in vivo cross-linking with 1 mM DSP for 15 min, lysis in 7 M urea and 1% Triton X-100, diluted 8x with PBS, Samp1a–YFP captured on GFP trap agarose beads 2 h at 4°C, wash 250 mM NaCl, 10 mM Hepes, 0.5% Triton X-100, pH 7.4, cross-link reversed with DTT, western blot
row,binding,Substance
1,no binding,β-tubulin (human (endogenous in HeLa))
2,binds,γ-tubulin (from UniProt P23258)
